{"source": "patent EP0795330A1", "about": "“Medicament for the treatment of insomnia” (ELI LILLY AND COMPANY, priority 1996, dated 1997)", "key": {"[1]": {"test_system": "muscarinic cholinergic receptor", "test": "pharmacological studies, muscarinic cholinergic receptor activity"}, "[2]": {"test_system": "insomnia", "test": "double-blind multicenter clinical trial, olanzapine versus placebo", "assay_type": "in vivo", "details": "patients randomized to olanzapine or placebo"}}, "note": "At least one structure is not confirmed: it was looked up by name or label, or the drawing left a doubt.", "data": [{"smiles": "Cc1cc2c(s1)Nc1ccccc1N=C2N1CCN(C)CC1", "note": "[olanzapine, 2-methyl-4-(4-methyl-l-piperazinyl)-10H-thieno[2,3-b][1,5] benzodiazepine]", "values": [{"measurement": "muscarinic cholinergic receptor activity", "setting": "[1]", "value": "has muscarinic cholinergic receptor activity"}, {"measurement": "usefulness for the treatment of insomnia", "setting": "[2]", "value": "can be useful for the treatment of insomnia"}]}]}
